Experimental data taken from publication PMC12700831.
Results are given in words; binding and its absence hold for the method and conditions named. In cells and extracts the contact can be indirect. Some binding calls cover weakened binding; strength is not graded here.

By UniProt entry, the sequences of proteins in these tests, tags left out.
UniProt Q5TEA3: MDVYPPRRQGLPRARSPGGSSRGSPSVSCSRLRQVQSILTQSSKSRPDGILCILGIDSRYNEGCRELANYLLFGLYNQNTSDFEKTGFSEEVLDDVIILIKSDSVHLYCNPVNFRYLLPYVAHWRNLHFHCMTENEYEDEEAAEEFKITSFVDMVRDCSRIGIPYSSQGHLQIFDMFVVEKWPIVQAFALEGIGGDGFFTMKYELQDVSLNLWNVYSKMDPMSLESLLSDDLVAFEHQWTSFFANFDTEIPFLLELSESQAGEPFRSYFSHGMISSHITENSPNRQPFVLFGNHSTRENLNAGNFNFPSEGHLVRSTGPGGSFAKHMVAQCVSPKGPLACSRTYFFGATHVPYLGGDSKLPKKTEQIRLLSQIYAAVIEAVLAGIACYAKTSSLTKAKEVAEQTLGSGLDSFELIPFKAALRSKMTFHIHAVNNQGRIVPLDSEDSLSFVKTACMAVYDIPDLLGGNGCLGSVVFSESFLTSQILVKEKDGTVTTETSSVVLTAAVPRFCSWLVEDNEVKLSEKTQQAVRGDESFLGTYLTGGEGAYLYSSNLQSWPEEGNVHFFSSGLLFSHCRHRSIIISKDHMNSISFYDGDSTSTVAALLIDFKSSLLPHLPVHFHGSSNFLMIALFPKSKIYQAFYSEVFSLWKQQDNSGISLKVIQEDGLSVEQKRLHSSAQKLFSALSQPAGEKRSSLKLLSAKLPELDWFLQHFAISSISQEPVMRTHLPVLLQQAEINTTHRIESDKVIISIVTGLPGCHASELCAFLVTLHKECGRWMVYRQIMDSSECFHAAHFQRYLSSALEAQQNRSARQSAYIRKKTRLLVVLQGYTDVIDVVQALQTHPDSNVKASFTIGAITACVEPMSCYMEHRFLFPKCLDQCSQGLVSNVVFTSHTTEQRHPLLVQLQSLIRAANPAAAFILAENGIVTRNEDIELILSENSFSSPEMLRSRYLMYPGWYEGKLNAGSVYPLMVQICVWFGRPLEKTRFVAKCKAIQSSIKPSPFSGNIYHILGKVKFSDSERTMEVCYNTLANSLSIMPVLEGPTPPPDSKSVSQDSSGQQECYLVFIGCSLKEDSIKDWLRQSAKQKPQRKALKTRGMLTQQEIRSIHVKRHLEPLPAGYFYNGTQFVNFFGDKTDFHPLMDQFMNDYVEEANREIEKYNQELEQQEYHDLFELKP

Molecular target: DNAAF9 (endogenous, human airway epithelial cells) (human (endogenous in HAECs)) (UniProt Q5TEA3)
Test: co-IP; endogenous DNAAF9 immunoprecipitated from HAEC (EC) lysates, western blot of the immunoprecipitates

| binding | Binder |
| --- | --- |
| binds | IFT74 (endogenous, human airway epithelial cells) (protein, UniProt Q96LB3 1-600) MASNHKSSAARPVSRGGVGLTGRPPSGIRPLSGNIRVATAMPPGTARPGSRGCPIGTGGVLSSQIKVAHRPVTQQGLTGMKTGTKGPQRQILDKSYYLGLLRSKISELTTEVNKLQKGIEMYNQENSVYLSYEKRAETLAVEIKELQGQLADYNMLVDKLNTNTEMEEVMNDYNMLKAQNDRETQSLDVIFTERQAKEKQIRSVEEEIEQEKQATDDIIKNMSFENQVKYLEMKTTNEKLLQELDTLQQQLDSQNMKKESLEAEIAHSQVKQEAVLLHEKLYELESHRDQMIAEDKSIGSPMEEREKLLKQIKDDNQEIASMERQLTDTKEKINQFIEEIRQLDMDLEEHQGEMNQKYKELKKREEHMDTFIETFEETKNQELKRKAQIEANIVALLEHCSRNINRIEQISSITNQELKMMQDDLNFKSTEVQKSQSTAQNLTSDIQRLQLDLQKMELLESKMTEEQHSLKSKIKQMTTDLEIYNDLPALKSSGEEKIKKLHQERMILSTHRNAFKKIMEKQNIEYEALKTQLQENETHSQLTNLERKWQHLEQNNFAMKEFIATKSQESDYQPIKKNVTKQIAEYNKTIVDALHSTSGN |
| binds | DNAI2 (protein, UniProt Q9GZS0 1-605) MEIVYVYVKKRSEFGKQCNFSDRQAELNIDIMPNPELAEQFVERNPVDTGIQCSISMSEHEANSERFEMETRGVNHVEGGWPKDVNPLELEQTIRFRKKVEKDENYVNAIMQLGSIMEHCIKQNNAIDIYEEYFNDEEAMEVMEEDPSAKTINVFRDPQEIKRAATHLSWHPDGNRKLAVAYSCLDFQRAPVGMSSDSYIWDLENPNKPELALKPSSPLVTLEFNPKDSHVLLGGCYNGQIACWDTRKGSLVAELSTIESSHRDPVYGTIWLQSKTGTECFSASTDGQVMWWDIRKMSEPTEVVILDITKKEQLENALGAISLEFESTLPTKFMVGTEQGIVISCNRKAKTSAEKIVCTFPGHHGPIYALQRNPFYPKNFLTVGDWTARIWSEDSRESSIMWTKYHMAYLTDAAWSPVRPTVFFTTRMDGTLDIWDFMFEQCDPTLSLKVCDEALFCLRVQDNGCLIACGSQLGTTTLLEVSPGLSTLQRNEKNVASSMFERETRREKILEARHREMRLKEKGKAEGRDEEQTDEELAVDLEALVSKAEEEFFDIIFAELKKKEADAIKLTPVPQQPSPEEDQVVEEGEEAAGEEGDEEVEEDLA |
| binds | IFT81 (endogenous, human airway epithelial cells) (protein, UniProt Q8WYA0 1-676) MSDQIKFIMDSLNKEPFRKNYNLITFDSLEPMQLLQVLSDVLAEIDPKQLVDIREEMPEQTAKRMLSLLGILKYKPSGNATDMSTFRQGLVIGSKPVIYPVLHWLLQRTNELKKRAYLARFLIKLEVPSEFLQDETVADTNKQYEELMEAFKTLHKEYEQLKISGFSTAEIRKDISAMEEEKDQLIKRVEHLKKRVETAQNHQWMLKIARQLRVEKEREEYLAQQKQEQKNQLFHAVQRLQRVQNQLKSMRQAAADAKPESLMKRLEEEIKFNLYMVTEKFPKELENKKKELHFLQKVVSEPAMGHSDLLELESKINEINTEINQLIEKKMMRNEPIEGKLSLYRQQASIISRKKEAKAEELQEAKEKLASLEREASVKRNQTREFDGTEVLKGDEFKRYVNKLRSKSTVFKKKHQIIAELKAEFGLLQRTEELLKQRHENIQQQLQTMEEKKGISGYSYTQEELERVSALKSEVDEMKGRTLDDMSEMVKKLYSLVSEKKSALASVIKELRQLRQKYQELTQECDEKKSQYDSCAAGLESNRSKLEQEVRRLREECLQEESRYHYTNCMIKNLEVQLRRATDEMKAYISSDQQEKRKAIREQYTKNTAEQENLGKKLREKQKVIRESHGPNMKQAKMWRDLEQLMECKKQCFLKQQSQTSIGQVIQEGGEDRLIL |
